PubChem BioAssay AID493246 | Drosophila RNAi Screening Center – 2011
In all, the deposit lists about 21,000 reagents; below is an unselected part of those that have a named target and a result. Of all reagents, 429 (2%) were called active. 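Values are raw and not normalised between plates; calls rest on per-plate z-scores that were not deposited.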 Unmarked entries are inactive. Reagents against one gene are numbered here. A plus sign joins genes that one reagent is predicted to hit. Not given: the amount of reagent, the time to read-out.

Screen: 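Genome-wide search for dsRNAs that reduce cell number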 (primary screen)
Cell system: Drosophila Kc and S2R+ cells
Knock-down reagent: long dsRNA against Drosophila genes
Read-out: 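Raw, unnormalised count of remaining cells in each well; per-plate z-scores of cell number underlie the calls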
Scale: Kc cell number and S2R+ cell number: higher = more cells remaining
Call rule: 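Counted as a hit if cell number falls by a z-score of at least 3 within its plate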

| gene knocked down | reagent no. | Kc cell number, rep 1 | Kc cell number, rep 2 | S2R+ cell number, rep 1 | S2R+ cell number, rep 2 |
| --- | --- | --- | --- | --- | --- |
| Pgk (GeneID 33461) | 1 | 1.53e6 | 1.59e6 | 1.00e6 | 1.15e6 |
| wdn (GeneID 43398) | 1 | 5.12e5 | – | 8.51e5 | – |
| Eb1 (GeneID 35584) | 1 | 1.62e6 | 1.62e6 | 1.34e6 | 1.22e6 |
| Saf6 (GeneID 33255) | 1 | 1.29e6 | 1.31e6 | 7.41e5 | 9.15e5 |
| Cln3 (GeneID 39981) | 1 | 1.39e6 | 1.38e6 | 1.23e6 | 1.33e6 |
| Trap1 (GeneID 35559) | 1 | 1.51e6 | 1.66e6 | 1.19e6 | 1.16e6 |
| CG34057 (GeneID 3885645) | 1 | 1.60e6 | 1.44e6 | 1.00e6 | 1.22e6 |
| js (GeneID 41986) | 1 | 1.29e6 | 1.31e6 | 1.15e6 | 1.33e6 |
| RpS18 (GeneID 37292) | 1 | 1.00e6 (active) | 1.13e6 | 7.74e5 | 8.89e5 |
| CG15617 (GeneID 36871) | 1 | 1.65e6 | 1.68e6 | 1.18e6 | 1.33e6 |
| CG31869 (GeneID 34490) | 1 | 1.49e6 | 1.54e6 | 1.19e6 | 1.32e6 |
| CG31869 (GeneID 34490) | 2 | 1.58e6 | 1.63e6 | 1.19e6 | 1.28e6 |
| CG42376 + cin | 1 | 5.04e5 | – | 8.39e5 | – |
| CG10802 (GeneID 31318) | 1 | 5.69e5 | – | 8.37e5 | – |
| CG6712 (GeneID 34631) | 1 | 1.51e6 | 1.63e6 | 1.40e6 | 1.35e6 |
| CG2854 (GeneID 31219) | 1 | 1.49e6 | 1.43e6 | 9.97e5 | 1.13e6 |
| nAChRalpha6 (GeneID 34304) | 1 | 1.45e6 | 1.57e6 | 9.80e5 | 1.13e6 |
| nAChRalpha6 (GeneID 34304) | 2 | 1.48e6 | 1.42e6 | 1.11e6 | 1.19e6 |
| CG7741 (GeneID 36208) | 1 | 1.72e6 | 1.75e6 | 1.20e6 | 1.36e6 |
| Raf (GeneID 31221) | 1 | 1.51e6 | 1.50e6 | 1.02e6 | 1.12e6 |
| CG1648 (GeneID 36009) | 1 | 1.45e6 | 1.48e6 | 1.07e6 | 1.16e6 |
| Fur2 (GeneID 32604) | 1 | 1.44e6 | 1.46e6 | 1.05e6 | 1.15e6 |
| ASPP (GeneID 37422) | 1 | 1.32e6 | 1.41e6 | 7.87e5 | 2.48e5 |
| Dus1 (GeneID 33190) | 1 | 1.64e6 | 1.59e6 | 1.14e6 | 1.23e6 |
| CG3609 (GeneID 33421) | 1 | 1.45e6 | 1.50e6 | 9.89e5 | 1.15e6 |
| Jhbp5 (GeneID 41949) | 1 | 1.30e6 | 1.35e6 | 1.13e6 | 1.28e6 |
| laza (GeneID 40468) | 1 | 1.65e6 | 1.70e6 | 1.25e6 | 1.31e6 |
| CG10669 (GeneID 43069) | 1 | 1.88e6 | 1.86e6 | 1.05e6 | 1.15e6 |
| Cap-D2 (GeneID 43491) | 1 | 5.25e5 | – | 6.71e5 | – |
| Unc-115a (GeneID 261629) | 1 | 1.53e6 | 1.67e6 | 1.08e6 | 1.18e6 |
| eIF4EHP (GeneID 326255) | 1 | 1.04e6 | 1.37e6 | 1.07e6 | 1.05e6 |
| eIF4EHP (GeneID 326255) | 2 | 1.44e6 | 1.54e6 | 1.06e6 | 1.12e6 |
| Diap2 (GeneID 36748) | 1 | 1.34e6 | 1.41e6 | 1.06e6 | 1.09e6 |
| CG14443 (GeneID 31595) | 1 | 1.52e6 | 1.52e6 | 1.04e6 | 1.11e6 |
| Prim2 (GeneID 44915) | 1 | 1.55e6 | 1.62e6 | 1.03e6 | 1.11e6 |
| Orc2 (GeneID 41703) | 1 | 1.46e6 | 1.49e6 | 1.18e6 | 1.24e6 |
| Cont (GeneID 40553) | 1 | 1.67e6 | 1.69e6 | 1.34e6 | 1.42e6 |
| CG33493 (GeneID 2768994) | 1 | 1.52e6 | 1.47e6 | 1.25e6 | 1.42e6 |
| sgg (GeneID 31248) | 1 | 1.11e6 | 1.25e6 | 1.06e6 | 1.12e6 |
| sgg (GeneID 31248) | 2 | 1.08e6 | 1.25e6 | 1.06e6 | 1.10e6 |
| sgg (GeneID 31248) | 3 | 1.47e6 | 1.48e6 | 9.66e5 | 1.06e6 |

Limited to “Kc cell number, rep 1” (4 entries from above):
ASPP (GeneID 37422): 1.32e6
Dus1 (GeneID 33190): 1.64e6
CG3609 (GeneID 33421): 1.45e6
Jhbp5 (GeneID 41949): 1.30e6
